# Article PMC5996148
# Several values for one entry are separate records, joined by “and”; a condition that tells them apart may be missing. Identical values can stand only once. The list shows a part of the results. For some of these results: The exact form of the protein is not confirmed.
# Legend:
# Experiment in all cases: protein microarray (ProtoArray v5.0), streptavidin-Alexa Fluor 647
# Conditions in all cases: 3'-biotin; 20 mM Tris (pH 7.5), 5 mM MgCl2, 100 mM KCl, 0.1% Tween-20, A/T-rich and random oligonucleotide blockers; temperature not stated; high values mean tight binding
# [1] = test system: MLX (human)
# [2] = test system: MMP12 (human)
# [3] = target: T1, MOBKL1A (UniProt Q7L9L4)
# T1 sequence: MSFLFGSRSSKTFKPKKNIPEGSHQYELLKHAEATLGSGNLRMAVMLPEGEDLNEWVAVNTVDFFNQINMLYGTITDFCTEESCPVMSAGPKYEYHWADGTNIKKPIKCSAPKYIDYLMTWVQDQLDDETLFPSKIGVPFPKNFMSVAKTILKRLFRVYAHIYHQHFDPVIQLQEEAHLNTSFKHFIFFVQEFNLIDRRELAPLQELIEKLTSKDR
# [4] = test system: MOGAT3 (human)
# [5] = test system: MPI (human)
# [6] = target: T2, MPP7 (UniProt Q5T2T1)
# T2 sequence: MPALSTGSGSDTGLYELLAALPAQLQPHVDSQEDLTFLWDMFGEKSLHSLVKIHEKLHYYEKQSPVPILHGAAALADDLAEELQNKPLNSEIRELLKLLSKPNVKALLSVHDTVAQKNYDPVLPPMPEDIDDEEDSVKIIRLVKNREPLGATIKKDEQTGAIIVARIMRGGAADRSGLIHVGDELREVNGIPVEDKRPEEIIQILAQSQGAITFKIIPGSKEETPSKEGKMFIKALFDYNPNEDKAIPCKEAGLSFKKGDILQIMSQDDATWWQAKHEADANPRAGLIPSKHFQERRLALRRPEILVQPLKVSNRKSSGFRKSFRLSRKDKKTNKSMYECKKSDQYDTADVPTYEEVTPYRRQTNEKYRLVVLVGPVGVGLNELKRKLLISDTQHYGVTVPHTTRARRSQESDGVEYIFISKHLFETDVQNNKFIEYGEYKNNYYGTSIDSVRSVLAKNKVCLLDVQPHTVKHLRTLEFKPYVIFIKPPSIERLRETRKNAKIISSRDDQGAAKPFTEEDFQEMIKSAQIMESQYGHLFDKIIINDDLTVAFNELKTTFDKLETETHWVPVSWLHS
# [7] = test system: MPPED2 (human)
# [8] = test system: MR1 (human)
# [9] = test system: MRS2L (human)
# [10] = test system: MSRB3 (human)
sequence,measurement,setting,value
GGGGACAGGGGTATGGGGAGGGG [G4-3 biotinylated (CtG)],binding signal,[1],-0.338 z-score and -0.336 z-score
same,binding signal,[2],-0.33 z-score
same,binding signal,[3],-0.311 z-score
same,binding signal,[4],-0.343 z-score
same,binding signal,[5],-0.332 z-score
same,binding signal,[6],3.33 z-score
same,binding signal,[7],-0.297 z-score
same,binding signal,[8],-0.301 z-score
same,binding signal,[9],-0.337 z-score
same,binding signal,[10],-0.328 z-score
